According to patent publication WO2021065846A1:
These are yes or no findings as the source states them, for the method shown. Some binding calls cover weakened binding; strength is not graded here. Each block holds one binder with its values, some of them ahead of it.

Experiments:
[1] = molecular target: anti-HIV-1 V3 antibody 1C10 (0.5γ); assay: inhibition ELISA: biotinylated 1C10 on NNT20 V3 peptide
[2] = molecular target: anti-HIV-1 V3 antibody 1C10 (0.5γ); assay: sandwich ELISA: Fab coated as capture, 1C10, biotinylated IgG #87 as detection
[3] = molecular target: anti-HIV-1 V3 antibody 1C10 (0.5γ); assay: SPR, Biacore T200, biotinylated 1C10 on SA chip, anti-idiotype antibody as analyte

binding [1]: binds
B1: anti-1C10 idiotype antibody #103 (IgG) (antibody, V domains shown)
VH: QIQLVQSGPELKKPGETVKISCKASGSTFTNYGMNWVKQAPGKGLKWMGWINTNTGEPTFAEEFKGRFAFSLETSVSTAYLQINNLRNEDTATYFCARRWLRQDYFSMNYWGQGTSVTVS
VL: DIQMTQSPSSLAASLGERVSLTCRASQEISGYLSWLQQKPDRTIKRLINAATTLDSGVPKRFSGSRSGSDYSLTISSLEPEDFADYYCLQYASYPYTFGGGTKLIK

binding [2]: binds
B2: Fab of anti-1C10 idiotype antibody #103 (Fab, V domains shown)
VH: B1 VH
VL: B1 VL

binding [3]: binds | binding [1]: binds
B3: anti-1C10 idiotype antibody #G46 (IgG) (antibody, V domains shown)
VH: EVQLQESGPELVKPGASVKMSCKASGYTFTSYVMHWEKQKPGQGLEWIGYINPYNDGTKYNEKFKGKATLTSDKSSSTAYMELSSLTSEDSAVYYCTRGGIIRGNYVIYNVMDYWGQGTS
VL: DIMTQSPASLSASVGETVTITCRASENIYSYLAWYQQKQGKSPQLLVYNAKTLAEGVPSRFSGSGSGTQFSLKINSLQPEDFGSYYCQHHNAPFTFGAGTKLELK
